In all, about 260,000 compounds went through this assay and about 1,500 (0.58%) were called active. Inconclusive results, whose numbers are uncertain, are shown with a selection of clear calls.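 Rule for the calls: active = inhibition above a set limit at one or more doses, reproduced on every date tested; inconclusive = results disagree between test dates, or hit never tested in dose response; inactive = the rest.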
target: Virion infectivity factor (Human immunodeficiency virus type 1 group M subtype B (isolate BH10)) + Virion infectivity factor (Human immunodeficiency virus type 1 group M subtype B (isolate BRU/LAI)) + Virion infectivity factor (Human immunodeficiency virus type 1 group M subtype B (isolate PCV12)) + Virion infectivity factor (Human immunodeficiency virus type 1 group M subtype B (isolate HXB2)) + DNA dC->dU-editing enzyme APOBEC-3G (Homo sapiens) (UniProt P69720+P69721+P69722+P69723+Q9HC16); assay: inhibitors of Vif binding to APOBEC3G peptide, primary screen, biochemical, TR-FRET, GST-Vif 1-94, biotin-A3G peptide, dose response retest (AID 1117319); conditions: hits give high values;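 note: Vif residues 1-94 fused to GST binding biotinylated APOBEC3G peptide 110-148; 0% = full assay without inhibitor and 100% = GST in place of GST-Vif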

Chains of the proteins cited; added tags and fusions are not shown. Lines headed by an entry give the natural chain unless they say otherwise; changes in a name come on top.
UniProt P69720: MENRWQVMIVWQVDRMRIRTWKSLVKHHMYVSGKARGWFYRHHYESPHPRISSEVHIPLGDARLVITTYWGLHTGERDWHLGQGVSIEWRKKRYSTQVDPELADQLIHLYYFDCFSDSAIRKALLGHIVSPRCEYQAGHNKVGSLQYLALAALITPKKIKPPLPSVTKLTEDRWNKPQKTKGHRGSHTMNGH
UniProt P69721: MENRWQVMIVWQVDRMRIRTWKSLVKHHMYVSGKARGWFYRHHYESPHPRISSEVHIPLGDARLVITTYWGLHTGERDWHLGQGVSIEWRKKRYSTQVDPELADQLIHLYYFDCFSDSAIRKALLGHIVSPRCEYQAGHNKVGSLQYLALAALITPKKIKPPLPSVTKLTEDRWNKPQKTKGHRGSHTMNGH
UniProt P69722: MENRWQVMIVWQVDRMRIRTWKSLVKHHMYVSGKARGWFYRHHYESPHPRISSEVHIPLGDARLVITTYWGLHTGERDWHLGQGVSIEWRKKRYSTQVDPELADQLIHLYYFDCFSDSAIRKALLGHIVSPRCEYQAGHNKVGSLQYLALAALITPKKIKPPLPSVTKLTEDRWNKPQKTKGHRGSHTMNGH
UniProt P69723: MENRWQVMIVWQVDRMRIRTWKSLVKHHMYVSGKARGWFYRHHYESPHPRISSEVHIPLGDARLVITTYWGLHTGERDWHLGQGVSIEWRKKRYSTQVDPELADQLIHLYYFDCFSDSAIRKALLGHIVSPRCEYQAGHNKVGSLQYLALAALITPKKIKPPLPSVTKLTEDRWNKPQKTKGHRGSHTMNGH
UniProt Q9HC16: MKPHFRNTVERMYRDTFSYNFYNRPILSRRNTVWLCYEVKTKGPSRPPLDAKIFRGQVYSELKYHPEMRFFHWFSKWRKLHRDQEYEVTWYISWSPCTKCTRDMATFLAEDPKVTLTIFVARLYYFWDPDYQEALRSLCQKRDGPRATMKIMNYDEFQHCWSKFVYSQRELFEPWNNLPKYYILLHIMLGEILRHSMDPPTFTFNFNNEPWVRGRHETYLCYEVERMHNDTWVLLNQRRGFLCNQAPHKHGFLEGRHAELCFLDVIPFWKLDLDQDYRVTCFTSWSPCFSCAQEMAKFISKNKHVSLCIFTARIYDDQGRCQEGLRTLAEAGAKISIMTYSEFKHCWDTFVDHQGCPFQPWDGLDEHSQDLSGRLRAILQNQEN

Row | Structure (SMILES) | inhibition
1 | Cc1cccc(-n2c(C)cc(/C=C3\NC(=O)NC3=O)c2C)c1 | inconclusive: 45.7%
2 | Cc1ccc(-n2nc(-c3ccco3)cc2C(=O)NCc2cccnc2)cc1 | inactive: 9.86%
3 | Cc1c(-c2ccccc2)oc2c(C(=O)N3CCN(c4ccccc4F)CC3)cccc2c1=O | inconclusive: 42.3%
4 | CCC(CC)C(=O)Nc1cc(Cl)ccc1C | inconclusive: 42.1%
5 | O=C(CCl)Nc1cc(S(=O)(=O)N2CCCCCC2)ccc1Cl | inconclusive: 53.3%
6 | Cc1cc(=O)oc2cc(OCC(=O)N3CCc4ccccc4C3)ccc12 | inconclusive: 48.6%
7 | CCOC(=O)C1=C(C)NC(=O)N(C(C)=O)C1c1ccc(Cl)cc1 (stereo not given) | inconclusive: 51.2%
8 | CC(C)n1cnc2c(Nc3cccc(Cl)c3)nc(N(CCO)CCCO)nc21 | inconclusive: 38.4%
9 | COc1ccccc1NC(=O)c1ccc(NC(=O)COC(=O)CC(NC(=O)c2ccccc2Cl)c2ccccc2)cc1 (stereo not given) | inconclusive: 42.8%
10 | COC(=O)C1=C(C)N(c2cccc(OC)c2)C(=O)/C1=C\c1ccco1 | inconclusive: 50.7%
11 | CCSc1cc(C2C(C(=O)OC)=C(C)NC3=C2C(=O)CCC3)c(C)o1 (stereo not given) | inconclusive: 42.8%
12 | NC(=S)N/N=C/c1cccc(O)c1O | inconclusive: 48.9%
13 | CCOC(=O)CNC(=O)c1nn(-c2ccc(OCC)cc2)c(=O)c2ccccc12 | inconclusive: 35.5%
14 | Cc1ccc(C(=O)ONc2ccc(N=NC(=O)c3ccccc3O)cc2)cc1 | inconclusive: 36.5%
15 | Cc1cccc(C(=O)NC2CC3CCCC(C2)N3C(=O)NC2CCCCC2)c1 (stereo not given) | inconclusive: 40%
16 | Cc1cc2nc(C3CCN(C(=S)NCCCOC(C)C)CC3)[nH]c2cc1C | inconclusive: 61.9%
17 | COc1cccc(CNS(=O)(=O)c2cn(C)cn2)c1 | inconclusive: 25.4%
18 | O=C(O)CCN1C(=O)S/C(=C\c2cccnc2)C1=O | inconclusive: 36.4%
19 | CC(Oc1ccccc1F)c1nnc(SCC(=O)NCc2ccc3c(c2)OCO3)o1 (stereo not given) | inactive: -7.49%
20 | Cc1cc(C)nc(N2CCC(C(=O)NCc3ccccc3)CC2)n1 | inconclusive: 41%
21 | CC(C)n1ncc2c(C(=O)NCCc3ccc(S(N)(=O)=O)cc3)cc(C3CC3)nc21 | inactive: 1.54%
22 | S=C(N/N=C/c1ccc2ncccc2c1)Nc1ccccc1 | inconclusive: 51.2%
23 | O=c1c2cc(N3CCOCC3)ccc2[nH]c(=S)n1Cc1ccccn1 | inconclusive: 39.8%
24 | Cc1ccc2[nH]c(=O)c(C(c3nnnn3C(C)(C)C)N(Cc3ccco3)CC3CCCO3)cc2c1 (stereo not given) | inconclusive: 58.9%
25 | O=C(O)c1ccccc1SC1CC(=O)N(c2cccc3ccccc23)C1=O (stereo not given) | inconclusive: 34.1%
26 | Cc1ccc(OCC(=O)c2cc(C)n(C)c2C)c([N+](=O)[O-])n1 | inconclusive: 49%
27 | Cc1ccc(NC(=O)CC(=O)NCCN2CCOCC2)cc1 | inconclusive: 47.9%
28 | CC1CN(c2oc(-c3ccco3)nc2S(=O)(=O)c2ccccc2)CC(C)O1 (stereo not given) | inconclusive: 61.5%

Rewritten as labelled records: part of the list above
O=c1c2cc(N3CCOCC3)ccc2[nH]c(=S)n1Cc1ccccn1
  inhibition: inconclusive: 39.8%
O=C(O)c1ccccc1SC1CC(=O)N(c2cccc3ccccc23)C1=O (stereo not given)
  inhibition: inconclusive: 34.1%

Next compounds follow:

Row | Structure (SMILES) | inhibition
29 | O=c1c2cccnc2[nH]c(=S)n1Cc1ccccc1 | inconclusive: 33%
30 | O=C(O)c1ccc2c(c1)C(=O)N(c1ccc(/C=C/C(=O)c3ccccc3)cc1)C2=O | inconclusive: 43.8%
31 | Cc1cccc(NC(=O)CCc2ccc(C)o2)c1 | inconclusive: 43%
32 | CC1CCc2c(sc(NS(=O)(=O)c3ccccc3)c2C(=O)OC(C)C)C1 (stereo not given) | inconclusive: 52%
33 | Nc1nc(CN2CCCCCC2)nc(Nc2ccc(F)cc2)n1 | inactive: -3.7%
34 | Cc1ccc2nc(NC(=O)C3CCCN(S(=O)(=O)c4cnc[nH]4)C3)sc2c1 (stereo not given) | inconclusive: 37.9%
35 | COc1cccc(/C=C2\C(=O)C(=O)c3ccccc32)c1 | inconclusive: 51.7%
36 | CC(Cc1c[nH]c2ccccc12)C(=O)O (stereo not given) | inconclusive: 54.4%
37 | Cc1ccc(-n2c(N)c(C(=O)Nc3c(C)n(C)n(-c4ccccc4)c3=O)c3nc4ccccc4nc32)cc1C | inconclusive: 48.6%
38 | COc1cccc(C2C(C#N)=C(N)OC3=C2C(=O)CCC3)c1OC(=O)c1ccco1 (stereo not given) | inactive: 22.1%
39 | COc1ccc2c(c1)c(=O)oc1c(C)c(OCc3cc(C(=O)O)oc3C)ccc12 | inconclusive: 34.2%
40 | Cc1ccc(C2CC(=O)c3cnc(NC(=O)c4ccco4)nc3C2)cc1 (stereo not given) | inconclusive: 35.2%
41 | O=C(O)c1cc(C(=O)O)cc(-c2ccc(/C=c3/sc4nc5ccccc5n4c3=O)o2)c1 | inconclusive: 33.5%
42 | Cc1cc(C=C2C(=O)c3ccccc3C2=O)c(C)n1-c1ccc(C(=O)O)cc1 | inconclusive: 45.5%
43 | COc1cc2ccccc2cc1C(=O)OCC(=O)N1CCOCC1 | inconclusive: 34.6%
44 | C#CCOCCOCCOCCNc1nc(N2CCN(C(=O)[C@H](CO)n3cc([C@@H](N)C(C)C)nn3)CC2)nc(N2CCN(C(=O)[C@H](CCC(=O)O)n3cc([C@@H](N)CCCCN)nn3)CC2)n1 | inactive: 19.7%
45 | COc1ccc(OCCSc2nc(-c3ccccc3)cc(=O)[nH]2)cc1 | inconclusive: 42%
46 | O=c1c2ccccc2nnn1CSc1nnnn1-c1ccc(O)cc1 | inconclusive: 39.4%
47 | CN(CC(=O)Nc1ccc(Cl)cc1)CC(=O)Nc1ccc(C(N)=O)cc1 | inconclusive: 35.3%
48 | COc1ccc2c(c1)CC/C(=C\Nc1ccc3c(c1)OCO3)C2=O | inconclusive: 37%
49 | CC(NC(=O)Nc1ccc(O)cc1)(C(F)(F)F)C(F)(F)F | inconclusive: 68.5%
50 | Oc1ccc(N2CCN(C(c3ccccn3)c3nnnn3C3CCCC3)CC2)cc1 (stereo not given) | inconclusive: 61%
51 | COc1ccccc1NC(=O)Nc1ccccc1SC | inconclusive: 52.6%
52 | Cc1cccc(-c2nc(CSCC(=O)N3CCN(c4ccccn4)CC3)c(C)o2)c1 | inconclusive: 35.5%
53 | O=C(Nc1ccccc1Cl)N1CCN(C/C=C/c2ccccc2)CC1 | inconclusive: 43.7%
54 | N#CC1=C(N)C(C#N)(C#N)C(c2cccnc2)C2CN(C(=O)OCc3ccccc3)CC=C12 (stereo not given) | inconclusive: 40.6%
55 | O=C(Nc1cccc(O)c1)N1CCOCC1 | inconclusive: 34.1%
